Source: paper PMC5617467
Results are given in words; binding and its absence hold for the method and conditions named. Binding seen in cells or lysates may run through a third protein. Some entries that bind do so weakly or less than the wild type.

By UniProt entry, the sequences of proteins in these tests, tags left out.
UniProt O95714: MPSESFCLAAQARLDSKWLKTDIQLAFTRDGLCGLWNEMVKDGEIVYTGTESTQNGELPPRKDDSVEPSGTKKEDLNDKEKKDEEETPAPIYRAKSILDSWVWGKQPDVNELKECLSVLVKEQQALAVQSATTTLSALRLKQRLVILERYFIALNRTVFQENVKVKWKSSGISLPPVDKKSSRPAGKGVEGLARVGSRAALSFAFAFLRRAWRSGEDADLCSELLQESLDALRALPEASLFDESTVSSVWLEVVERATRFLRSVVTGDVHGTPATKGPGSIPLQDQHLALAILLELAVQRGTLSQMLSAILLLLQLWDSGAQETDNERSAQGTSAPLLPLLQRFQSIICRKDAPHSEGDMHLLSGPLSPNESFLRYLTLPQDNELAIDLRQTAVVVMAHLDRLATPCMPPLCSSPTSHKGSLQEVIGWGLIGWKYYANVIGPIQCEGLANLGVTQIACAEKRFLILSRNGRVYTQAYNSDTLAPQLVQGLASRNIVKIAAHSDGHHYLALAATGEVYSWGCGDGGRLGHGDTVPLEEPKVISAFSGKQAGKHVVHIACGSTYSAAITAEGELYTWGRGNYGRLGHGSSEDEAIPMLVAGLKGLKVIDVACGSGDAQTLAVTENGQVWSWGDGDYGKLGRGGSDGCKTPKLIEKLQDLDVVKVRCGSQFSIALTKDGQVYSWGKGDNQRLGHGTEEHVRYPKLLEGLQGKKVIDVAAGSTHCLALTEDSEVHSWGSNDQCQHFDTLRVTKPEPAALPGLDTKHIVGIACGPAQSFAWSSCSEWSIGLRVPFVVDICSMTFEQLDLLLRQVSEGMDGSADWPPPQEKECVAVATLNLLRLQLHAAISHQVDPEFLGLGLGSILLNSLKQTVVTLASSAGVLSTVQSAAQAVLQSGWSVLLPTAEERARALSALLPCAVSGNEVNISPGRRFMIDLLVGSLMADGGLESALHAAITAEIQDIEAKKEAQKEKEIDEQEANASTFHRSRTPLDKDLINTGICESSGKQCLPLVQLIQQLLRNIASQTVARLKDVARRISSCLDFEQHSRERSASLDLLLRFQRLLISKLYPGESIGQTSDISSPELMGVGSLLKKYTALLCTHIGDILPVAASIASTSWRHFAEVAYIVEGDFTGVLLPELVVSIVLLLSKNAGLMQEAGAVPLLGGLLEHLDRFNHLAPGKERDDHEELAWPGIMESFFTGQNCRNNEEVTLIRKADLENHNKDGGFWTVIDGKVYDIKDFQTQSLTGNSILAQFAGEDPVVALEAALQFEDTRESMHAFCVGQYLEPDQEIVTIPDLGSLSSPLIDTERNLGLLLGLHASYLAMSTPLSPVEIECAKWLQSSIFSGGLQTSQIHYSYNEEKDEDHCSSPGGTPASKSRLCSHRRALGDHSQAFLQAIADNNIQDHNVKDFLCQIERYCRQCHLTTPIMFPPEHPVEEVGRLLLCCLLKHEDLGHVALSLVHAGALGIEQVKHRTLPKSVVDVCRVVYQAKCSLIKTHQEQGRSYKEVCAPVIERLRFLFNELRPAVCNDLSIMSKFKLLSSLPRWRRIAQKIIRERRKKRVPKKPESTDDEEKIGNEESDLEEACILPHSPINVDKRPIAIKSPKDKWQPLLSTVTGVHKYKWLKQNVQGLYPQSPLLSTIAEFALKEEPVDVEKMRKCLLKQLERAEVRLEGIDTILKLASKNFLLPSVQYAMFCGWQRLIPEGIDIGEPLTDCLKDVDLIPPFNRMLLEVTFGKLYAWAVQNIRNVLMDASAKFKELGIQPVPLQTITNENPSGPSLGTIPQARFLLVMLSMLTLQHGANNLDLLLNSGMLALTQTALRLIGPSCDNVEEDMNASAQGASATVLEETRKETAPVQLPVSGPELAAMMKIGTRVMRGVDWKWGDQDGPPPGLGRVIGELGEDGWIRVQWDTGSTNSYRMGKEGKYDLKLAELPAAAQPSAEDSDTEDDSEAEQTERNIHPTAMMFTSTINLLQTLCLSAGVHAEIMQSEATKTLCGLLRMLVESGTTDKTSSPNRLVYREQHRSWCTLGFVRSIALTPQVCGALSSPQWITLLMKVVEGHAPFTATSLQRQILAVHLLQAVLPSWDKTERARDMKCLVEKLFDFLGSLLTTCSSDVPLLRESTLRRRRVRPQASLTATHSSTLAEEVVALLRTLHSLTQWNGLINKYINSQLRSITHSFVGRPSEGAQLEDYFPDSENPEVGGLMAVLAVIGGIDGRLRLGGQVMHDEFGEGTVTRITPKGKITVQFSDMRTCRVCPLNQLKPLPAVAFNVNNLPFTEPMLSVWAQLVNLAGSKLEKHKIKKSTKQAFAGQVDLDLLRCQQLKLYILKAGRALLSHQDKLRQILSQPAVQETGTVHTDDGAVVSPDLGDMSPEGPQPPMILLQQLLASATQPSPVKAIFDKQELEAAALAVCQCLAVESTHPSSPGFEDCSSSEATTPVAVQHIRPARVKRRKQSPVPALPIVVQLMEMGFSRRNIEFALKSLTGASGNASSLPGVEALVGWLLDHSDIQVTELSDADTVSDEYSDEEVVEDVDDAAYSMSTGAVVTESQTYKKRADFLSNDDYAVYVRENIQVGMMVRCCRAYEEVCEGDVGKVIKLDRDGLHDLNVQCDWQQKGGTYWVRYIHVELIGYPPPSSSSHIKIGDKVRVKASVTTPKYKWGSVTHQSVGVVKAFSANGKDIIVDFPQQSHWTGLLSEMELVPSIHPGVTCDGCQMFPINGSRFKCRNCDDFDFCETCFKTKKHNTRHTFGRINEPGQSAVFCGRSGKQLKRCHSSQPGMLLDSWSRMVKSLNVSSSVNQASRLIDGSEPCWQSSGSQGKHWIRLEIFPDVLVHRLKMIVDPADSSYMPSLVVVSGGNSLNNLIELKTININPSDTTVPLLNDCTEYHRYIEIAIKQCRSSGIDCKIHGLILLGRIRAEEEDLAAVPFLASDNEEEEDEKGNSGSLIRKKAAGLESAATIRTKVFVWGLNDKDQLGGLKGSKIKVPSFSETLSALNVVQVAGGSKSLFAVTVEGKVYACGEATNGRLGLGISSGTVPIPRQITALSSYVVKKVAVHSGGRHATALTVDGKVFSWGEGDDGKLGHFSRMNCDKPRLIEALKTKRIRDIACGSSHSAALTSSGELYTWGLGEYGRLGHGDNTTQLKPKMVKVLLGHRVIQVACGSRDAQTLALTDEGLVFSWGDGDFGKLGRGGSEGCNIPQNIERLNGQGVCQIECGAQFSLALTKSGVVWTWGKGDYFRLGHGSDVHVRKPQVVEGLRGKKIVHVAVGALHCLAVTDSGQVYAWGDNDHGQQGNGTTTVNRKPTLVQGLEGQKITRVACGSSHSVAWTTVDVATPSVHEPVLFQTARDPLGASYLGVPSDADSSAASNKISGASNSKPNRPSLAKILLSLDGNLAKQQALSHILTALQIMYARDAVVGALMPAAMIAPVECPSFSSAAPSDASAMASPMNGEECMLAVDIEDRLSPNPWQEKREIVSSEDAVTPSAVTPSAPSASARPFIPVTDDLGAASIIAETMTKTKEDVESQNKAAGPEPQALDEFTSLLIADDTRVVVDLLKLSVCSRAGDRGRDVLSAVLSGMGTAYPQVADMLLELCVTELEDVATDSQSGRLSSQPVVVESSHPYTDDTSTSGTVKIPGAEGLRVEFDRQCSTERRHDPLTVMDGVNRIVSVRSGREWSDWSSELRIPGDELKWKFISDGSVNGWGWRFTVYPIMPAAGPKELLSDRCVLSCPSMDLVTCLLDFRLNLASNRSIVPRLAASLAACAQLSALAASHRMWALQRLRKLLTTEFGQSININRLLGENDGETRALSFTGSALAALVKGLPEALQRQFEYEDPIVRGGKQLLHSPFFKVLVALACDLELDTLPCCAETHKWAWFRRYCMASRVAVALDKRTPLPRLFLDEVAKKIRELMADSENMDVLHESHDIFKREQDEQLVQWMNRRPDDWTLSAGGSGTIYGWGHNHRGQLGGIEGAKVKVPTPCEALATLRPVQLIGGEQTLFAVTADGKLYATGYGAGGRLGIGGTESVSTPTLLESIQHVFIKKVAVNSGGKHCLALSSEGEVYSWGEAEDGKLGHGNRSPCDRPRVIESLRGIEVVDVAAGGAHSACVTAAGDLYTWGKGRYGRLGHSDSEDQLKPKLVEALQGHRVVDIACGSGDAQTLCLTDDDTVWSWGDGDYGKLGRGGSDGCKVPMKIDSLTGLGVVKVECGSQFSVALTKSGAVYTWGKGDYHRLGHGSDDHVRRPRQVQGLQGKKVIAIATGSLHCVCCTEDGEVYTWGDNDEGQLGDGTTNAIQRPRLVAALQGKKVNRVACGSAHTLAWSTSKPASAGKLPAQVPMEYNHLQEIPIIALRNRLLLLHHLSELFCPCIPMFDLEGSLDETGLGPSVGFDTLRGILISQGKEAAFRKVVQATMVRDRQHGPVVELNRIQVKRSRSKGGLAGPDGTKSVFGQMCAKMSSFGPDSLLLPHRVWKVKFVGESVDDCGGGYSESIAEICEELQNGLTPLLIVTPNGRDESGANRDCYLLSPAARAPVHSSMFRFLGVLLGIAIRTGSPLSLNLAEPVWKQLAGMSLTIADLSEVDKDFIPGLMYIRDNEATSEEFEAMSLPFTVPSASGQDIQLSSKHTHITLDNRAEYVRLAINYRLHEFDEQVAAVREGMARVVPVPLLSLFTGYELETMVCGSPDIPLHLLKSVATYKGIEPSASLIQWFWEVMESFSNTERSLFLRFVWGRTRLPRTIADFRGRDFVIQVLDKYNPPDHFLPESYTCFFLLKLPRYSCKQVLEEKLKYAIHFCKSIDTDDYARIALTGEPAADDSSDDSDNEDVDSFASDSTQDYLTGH
UniProt Q96JN8: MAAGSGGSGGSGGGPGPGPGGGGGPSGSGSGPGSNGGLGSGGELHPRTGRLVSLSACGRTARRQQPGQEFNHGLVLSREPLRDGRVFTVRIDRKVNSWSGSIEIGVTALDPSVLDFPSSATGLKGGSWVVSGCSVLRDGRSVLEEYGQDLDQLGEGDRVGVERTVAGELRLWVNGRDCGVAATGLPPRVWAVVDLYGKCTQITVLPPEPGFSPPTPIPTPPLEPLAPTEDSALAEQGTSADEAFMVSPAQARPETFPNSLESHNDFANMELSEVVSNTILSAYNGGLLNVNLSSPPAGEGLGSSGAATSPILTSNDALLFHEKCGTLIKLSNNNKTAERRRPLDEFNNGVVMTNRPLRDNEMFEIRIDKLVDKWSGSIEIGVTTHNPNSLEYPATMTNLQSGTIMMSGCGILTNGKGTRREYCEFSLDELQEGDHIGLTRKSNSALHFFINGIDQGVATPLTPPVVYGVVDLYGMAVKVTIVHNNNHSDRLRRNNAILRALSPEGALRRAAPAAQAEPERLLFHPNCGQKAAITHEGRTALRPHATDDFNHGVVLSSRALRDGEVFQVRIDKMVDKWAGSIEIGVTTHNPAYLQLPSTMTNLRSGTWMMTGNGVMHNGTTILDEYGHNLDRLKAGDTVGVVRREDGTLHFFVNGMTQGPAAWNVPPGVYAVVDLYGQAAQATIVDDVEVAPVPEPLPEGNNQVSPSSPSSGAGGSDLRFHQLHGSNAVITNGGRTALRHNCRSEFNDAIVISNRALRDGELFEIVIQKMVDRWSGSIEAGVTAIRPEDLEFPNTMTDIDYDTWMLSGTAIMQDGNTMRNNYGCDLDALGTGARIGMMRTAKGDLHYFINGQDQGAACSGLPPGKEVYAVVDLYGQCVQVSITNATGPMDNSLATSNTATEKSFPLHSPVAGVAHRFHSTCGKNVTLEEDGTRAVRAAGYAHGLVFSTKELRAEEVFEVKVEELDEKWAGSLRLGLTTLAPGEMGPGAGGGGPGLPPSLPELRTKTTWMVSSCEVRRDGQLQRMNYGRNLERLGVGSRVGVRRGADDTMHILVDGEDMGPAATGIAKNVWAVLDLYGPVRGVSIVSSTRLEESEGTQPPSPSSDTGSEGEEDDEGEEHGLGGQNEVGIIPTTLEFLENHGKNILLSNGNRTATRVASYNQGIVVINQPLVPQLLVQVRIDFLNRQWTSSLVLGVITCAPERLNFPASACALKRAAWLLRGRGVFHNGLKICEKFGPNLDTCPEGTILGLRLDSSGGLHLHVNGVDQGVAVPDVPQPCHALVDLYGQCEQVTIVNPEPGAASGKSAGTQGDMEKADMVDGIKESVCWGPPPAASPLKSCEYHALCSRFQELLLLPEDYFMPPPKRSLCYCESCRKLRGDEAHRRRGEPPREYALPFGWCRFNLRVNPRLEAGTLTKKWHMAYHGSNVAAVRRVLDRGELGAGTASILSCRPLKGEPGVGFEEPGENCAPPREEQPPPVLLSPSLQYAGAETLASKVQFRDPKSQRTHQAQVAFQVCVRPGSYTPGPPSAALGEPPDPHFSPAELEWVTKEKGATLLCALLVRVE

Columns and labels:
[1] = target: E3 ubiquitin ligase HERC2 (endogenous) (human (endogenous in HEK-293T, U2OS, H1299)) (UniProt O95714); assay: co-IP; lysates (NP40 buffer) of HEK-293T, U2OS and H1299 cells immunoprecipitated with anti-HERC2 polyclonal antibody Bvg9 (against residues 1-199), protein A-Sepharose, 4 °C, immunoblot; preimmune serum as control; also in U2OS after NT or NEURL4 siRNA (72 h); the antibody used in H1299 is not named
[2] = target: E3 ubiquitin ligase HERC2 (endogenous) (human (endogenous in HEK-293T, U2OS, H1299)) (UniProt O95714); assay: co-IP; lysates (NP40 buffer) of HEK-293T cells immunoprecipitated with anti-HERC2 polyclonal antibody Bvg1 (against residues 4785-4834, carboxyl terminus), protein A-Sepharose, 4 °C, immunoblot
[3] = target: GFP-NEURL4 fusion protein (UniProt Q96JN8); assay: pull-down; lysates of transfected H1299 cells (GFP-NEURL4 with GST-p53 constructs) incubated with GFP-Trap beads overnight at 4 °C, washed five times with NP40 buffer, immunoblot; also after NT or HERC2 siRNA (72 h)

NEURL4 (endogenous), adaptor-like protein with six neuralized domains (from UniProt Q96JN8 1-1562)
binding [1]: binds | binding [2]: binds

E3 ubiquitin ligase HERC2 (endogenous) (from UniProt O95714 1-4834)
binding [3]: binds
